Assay results: PMC10250352
Results are given in words; binding and its absence hold for the method and conditions named. Binding seen in cells or lysates may run through a third protein. For some of these results: Binding calls can cover weak binding; strength is not graded here. For some of these results: Sequences can lack the tags named with a protein. Each block holds one molecule with its values, some of them ahead of it.

What was measured:
[1] = biological target: T1, ESA-1^(3 x FLAG) (Neurospora crassa) (UniProt Q7S9B6); experiment: co-IP; sequential: lysate of bye-1^(3 x HA)/brd-8^V5/esa-1^(3 x FLAG) grown in constant light, first IP on FLAG-antibody resin, elution with 3 x FLAG peptide, second IP of the eluate on V5-antibody resin; bye-1^(3 x HA) as negative control
T1 sequence: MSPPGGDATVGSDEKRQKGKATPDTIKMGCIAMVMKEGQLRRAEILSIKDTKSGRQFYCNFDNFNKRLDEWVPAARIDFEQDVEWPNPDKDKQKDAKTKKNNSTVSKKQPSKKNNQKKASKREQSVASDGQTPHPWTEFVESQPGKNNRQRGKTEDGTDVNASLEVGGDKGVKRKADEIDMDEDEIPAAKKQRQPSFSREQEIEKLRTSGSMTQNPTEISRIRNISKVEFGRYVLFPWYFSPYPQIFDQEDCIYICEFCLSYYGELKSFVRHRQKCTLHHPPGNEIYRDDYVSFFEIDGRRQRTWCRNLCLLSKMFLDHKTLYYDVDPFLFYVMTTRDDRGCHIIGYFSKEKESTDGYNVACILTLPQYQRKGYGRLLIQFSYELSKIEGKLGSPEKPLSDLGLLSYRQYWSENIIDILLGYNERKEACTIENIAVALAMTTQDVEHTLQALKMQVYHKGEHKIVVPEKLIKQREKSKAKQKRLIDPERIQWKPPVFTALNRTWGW

[2] = biological target: T1, ESA-1^(3 x FLAG) (Neurospora crassa); experiment: co-IP; immunodepletion from cultures grown in constant light: BRD-8^V5 depleted with V5 antibody, or ESA-1^(3 x FLAG) depleted by two FLAG IPs and the supernatant then pulled down with V5 resin
[3] = biological target: Neurospora BRD-8^V5 co-expressed in E. coli (Neurospora crassa) (UniProt Q7SC01); experiment: co-IP; Neurospora BRD-8^V5 co-expressed with BYE-1, ARP-4 or EPL-1 in E. coli; immunoprecipitation
[4] = biological target: BRD-8^V5 (BRD-8 C-terminally tagged with V5) (Neurospora crassa) (UniProt Q7SC01); experiment: co-IP; 2 mg of total Neurospora protein with 20 uL V5 agarose or FLAG M2 resin, 4 °C for 2 h; washed twice with 50 mM HEPES pH 7.4, 137 mM NaCl, 10% glycerol, 0.4% NP-40; Western blot for the epitope tags
[5] = biological target: BRD-8^∆2-348 (V5-tagged) (Neurospora crassa); experiment: as above
[6] = biological target: brd-8^∆349-702 (V5-tagged) (Neurospora crassa); experiment: as above
[7] = biological target: brd-8^∆1030-1306 (V5-tagged) (Neurospora crassa); experiment: as above
[8] = biological target: BRD-8^∆703-1029 (V5-tagged) (Neurospora crassa); experiment: as above
[9] = biological target: BRD-8^V5 (BRD-8 C-terminally tagged with V5) (Neurospora crassa) (UniProt Q7SC01); experiment: co-IP; immunodepletion from cultures grown in constant light: BRD-8^V5 depleted with V5 antibody, or ESA-1^(3 x FLAG) depleted by two FLAG IPs and the supernatant then pulled down with V5 resin

Molecule: BRD-8^V5 (BRD-8 C-terminally tagged with V5) (from UniProt Q7SC01)
binding [1]: binds | binding [2]: binds

B1: EPL-1 co-expressed in E. coli (protein, UniProt Q7S747 1-589)
chain: MATRKVRYKKLSVKTQLAVLREDQIEASEYESLTSENQIATGVEQAEENEYHLQAVLKGAGVAADQEIPVPPPQQSELDYDQFYPQKVAKTSTYIRFSQTVEECISCLYDMTEDDETFLKSYNMKLTPSARLSEDDFERIMDVYEDMAANITPFSAIDQTVPSYQEMLRGLEPLDSTKVMVHAKQIYEYWKSRREISKNRPLNPTLKFETHAESDELDPYVCFRRREIRQTRKTRARDVQSADKLKRLRKELEEGRQLILAAHNRELLKADMLKVERAIFDQRAIIKEQKLRLGIRTGDEDLVNQKPQKRKAPEAPSAQRPPPPPQIRMPVRPDGRPAESDLVQLSDRLAEKNAELIIEIEKKIQNHIDWNKNYVDLTGKPLSPVQGPRQDLGFRPAKTQYLMTPPASASSGSMDEPTPMDLDKPKPNPPPPVKFRGVAQDEQSLAHPPSYRRRIGRLNRLWIDRRGLPSPARDLSEEQSDRWKYDQSSDDEDDAPVYMLDPFDTKALRYRASIPLQTVTRPPPPVINRQFIPPGAVPQQLAQSSFAPGQPQPQSQPQPNQSQSLPLPQPQQPVAQPQPQPQPQAQPVS
binding [3]: binds

B3: ESA-1 tagged with 3 x FLAG or V5 (enzyme, UniProt Q7S9B6 1-506)
chain: T1 sequence
binding [4]: binds

B5: ARP-4 co-expressed in E. coli (protein, UniProt Q7SHR0 1-469)
chain: MSHQQPLSSSVQPTDIYGGDEVSALVLDPGYCNTRAGYAGEEMPKQVLPSFYGHINGRDVFGDEYIVPKPGFEVRNYMNRDSVVEDWDAATRMWEHVLVKRLQPERSTPPSKKGINISDDGDVPMEDDGNNNEDATDALEKPLAENPLLMTEAPWNSPKAREKAIEISMETWGVPAFWLSKTPVLAAFAAGKATALVIDVGGANTSVTAIHDGMVLKRSIQRSPVGGVWLSSQICKMWDGSEPKVDVVPRFMVESKKPVEAGAPAEANLRKFNFDIHPSFRAYEEERVLTEFKESVVEVWRGPQRFTTPGNEDAVRTQPGRVFEMPDGSNQMWREQRFKVSEGMWDETAAYNSTDEEGRVTKAQTIPALIKAALEGVDVDLRPNILGNVVVTGSTSLLNGFNDRLNHELAQMYPGVKIKIHAAGLTTERRFGAWIGGSILASLGTFHQMWISRKEYDENGAGIVEKRCK
binding [3]: binds

B6: EAF-6 tagged with 3 x FLAG or V5 (protein, UniProt Q7SDW6 1-187)
chain: MMDNSGPKMGAADGAAGIPYYEKQRQHLKELLNKKKLLEKRLLAQEESIYQKETEYLENTPAGNIITGFDNYTKGTANVAAQRRKTGLTDANRVFSRSSISYNPAAQQDSQTPASSAPASHAPTPVSTSFNNKDGASSAPTPTSATAGKANSKKKKAATSGGAGVEDSETDSRETKKARTNFGAVRK
binding [4]: binds

Further lines, results first:

binding [4]: binds
B2: YAF-9 tagged with 3 x FLAG or V5 (protein, UniProt Q7RZK7 1-309)
chain: MAPPTGKRVKGVQIFRPFVYGTTARPFDEKTNPKPPGIPDDHTHSWTVFIKGIDDVDITYWLRRVQFKLHESIPNHVRMVEGVKGQPFQIHETGWGEFEITMKLYYVPESSEKPQTLYHHLRLHPFGRTEEEKEAMRLNGGEVISWVYEEQIFNEPYEPFYDILISGALPPSASTLKDGGGGGGSGAATPTSANTPGASSSKGGNKKGHERSHSRASVSTNKDGKNNNESKEEPFVIQKSEGGVLERSAMIPLVNRPGQPFSRETEQLEIQKLKEAKLKVDEMKKQMMEELEKKQKRLEALRAESAKAP

binding [5]: no binding | binding [6]: binds | binding [4]: binds | binding [7]: binds | binding [8]: binds | binding [9]: binds
B4: ESA-1^(3 x FLAG) (enzyme, UniProt Q7S9B6 1-506)
chain: T1 sequence
